Library screen at single concentrations

A: 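Whole-parasite assay of Trypanosoma brucei over 72 hours; the read-out is not stated. Tested at 30 µM. Higher reads as stronger inhibition (inferred: compounds with an IC50 in retests scored well above the rest). Values scatter widely below zero; nearly all retest evidence comes from the higher of the two concentrations used. Of about 64,000 compounds tested this way, about 940 (1.5%) reached 50% or more in at least one test.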
B: 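Cell assay of Leishmania donovani living inside macrophages; the read-out is not stated. Concentration: 30 µM. Direction is inferred from retests: higher values go with stronger inhibition. About 69,000 compounds were tested under these conditions; 1.5% (about 1,000) showed 50% or more at least once.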

Results are given as percent effect. The controls that fix the scale are not given in the record; negative values are as filed. This is an unselected part of the compounds tested. Two or more numbers in one place are separate tests of the same structure; such repeats can differ widely.

- CCCn1cc(-c2cc(-c3c[nH]cn3)c(C#N)c(N)n2)c(C)n1 | A: 58.89%; B: -2.924%
- Cc1cc(C)n(CC(=O)N2CCCCC2CCc2cccs2)c(=O)n1 (centres unmarked) | A: -42.44%; B: 9.279%
- CC(C)c1cccc(-n2cc(O)c(C(N)=O)n2)c1 | A: -6.234%; B: -7.486%
- CN(C(=O)COCc1ccccc1)C1CCN(CC2CCOC2)CC1 (centres unmarked) | A: 18.65%; B: 20.88%
- CCC(C)N(C)CCNC(=O)NCc1cccc(-n2cncn2)c1 (centres unmarked) | A: 10.26%; B: -4.847%
- O=S(=O)(NC1=NCN(CCc2ccccc2)CN1)c1ccc(F)cc1 | A: -32.08%; B: 1.728%
- CN1C(=O)CC2(CCN(Cc3cnn(C)c3)CC2)c2ccccc21 | A: -22.12%; B: 0.4858% and 10.86%
- [H][C@]12CCN(c3ncccc3Cl)C[C@]1(COC)CC[C@@H](N1CCOCC1)C2 | A: 81.93%; B: 52.08%
- CCCNC(=O)CSc1nnc2[nH]c(=O)cc(CC)n12 | A: -38.55%; B: -23.16%
- Cc1cc(C(=O)CN2C(=O)c3ccccc3CS2(=O)=O)c(C)[nH]1 | A: -5.287%; B: 10.37%
- CCC1c2cccn2CCN1C(=O)c1cc(OC)nc(OC)n1 (centres unmarked) | A: -70.48%; B: -22.34%
- CN(C)CCC1CCCCN1Cc1cnn(C)c1C1CC1 (centres unmarked) | A: -12.38%; B: 13.96%
- COc1c(NS(=O)(=O)c2ccc(C)c(C)c2)c(C)nn1C | A: -1.019%; B: 16.51%
- [H][C@@]12C[C@H](c3nc(C)no3)CN(S(C)(=O)=O)[C@]1([H])CCO2 | A: -2.888%; B: 20.1%
- [H][C@@]12CN(CC(CC)CC)C[C@]1([H])OCCN2Cc1cnn(C)c1 | A: -183.2%; B: -6.338%
- CC(=O)Nn1ccc2c(nnc3c(-c4ccc(F)cc4)cnn32)c1=O | A: -15.1%; B: -62.46%
- O=S(=O)(CCNCc1cc(O)c2cc(F)ccc2n1)N1CCCC1 | A: 71.96%; B: -1.235%
- CCOC(=O)CSc1ccc(-c2nc(CC)no2)cn1 | A: -27.68%; B: 12.45%
- CC(C)CN(CC(=O)O)C(=O)c1ccc(F)cc1 | A: -36.96%; B: -14.9%
- CCC(NC(=O)CCCNC(=O)OC)c1cc(F)ccc1F (centres unmarked) | A: -6.337%; B: 14.59%
- CCN(CC)S(=O)(=O)c1ccc(CNC(=O)N2CCCCCC2)cc1 | A: 27.66%; B: 7.629%
- Cc1ccc(-c2cc(CNCCn3cc(C)cn3)on2)cc1 | A: -2.536%; B: 6.419%
- CCc1nccn1C1CCCN(C(=O)c2cnn3ccc(C)nc23)C1 (centres unmarked) | A: -10.98%; B: 23.78%
- O=C(CN1CCS(=O)(=O)CC1)NC1CCCOc2ccccc21 (centres unmarked) | A: -12.49%; B: 19.1%
- O=C1OCCN1CCNCC1(O)CCCN(CCC2CCCCC2)C1=O (centres unmarked) | A: 4.089%; B: 27.13%
- CCN(Cc1nc(COC)no1)Cc1cccnc1NC | A: -22.82%; B: -11.89%
- CN(C)C(=O)N1CCN(C(=O)c2ccccc2)CC2(CNC(=O)C2)C1 (centres unmarked) | A: -11.13%; B: 14.34%
- CC(C)CN1CCC(NCCNc2cccnc2)CC1 | A: -31.15%; B: 5.595%
- Cc1cnn(CC2CCCCN2CCn2cncn2)c1 (centres unmarked) | A: -15.11%; B: -17.39%
- CC1CN(C)CCN1Cc1cccc(C(=O)NCc2ccco2)c1 (centres unmarked) | A: -1.641%; B: 8.546%
- CCc1ncnc2c1CCN(Cc1nccs1)CC2.O=C(O)C(F)(F)F | A: -5.787%; B: -11.15%
- Cn1cnc2c1CCN(CC(=O)N(Cc1ccsc1)C1CC1)C2 | A: -47.32%; B: 1.808%

For reference, 3 entries once more:

For CCCn1cc(-c2cc(-c3c[nH]cn3)c(C#N)c(N)n2)c(C)n1 the result was A: 58.89%; B: -2.924%.
For O=S(=O)(CCNCc1cc(O)c2cc(F)ccc2n1)N1CCCC1 the result was A: 71.96%; B: -1.235%.
For Cc1cc(C)n(CC(=O)N2CCCCC2CCc2cccs2)c(=O)n1 (centres unmarked) the result was A: -42.44%; B: 9.279%.

Data taken from ChEMBL document CHEMBL3988442, “University of Dundee, Small-Polar-MMV Screening Library” (2021).